Data source: PubChem BioAssay AID1259425 (University of Nebraska Medical Center, 2018)
The whole screen tested about 14,000 reagents; below is a part drawn at random. Not stated in the record: the time to read-out.

Purpose: 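Compare each knockdown with KSR1 silencing using changes in marker transcripts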 (primary screen)
System: HCT116 human colon cancer cells
Reagent: siRNA pool against human genes, 50 nM siRNA
Detection: 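mRNA of six signature genes measured together by branched-DNA assay after 50 nM siRNA pool, blank removed, divided by geometric mean of two housekeeping genes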
Scale: BNIP3L mRNA: higher = more BNIP3L transcript after knockdown; NDRG1 mRNA: higher = more NDRG1 transcript after knockdown; BNIP3 mRNA: higher = more BNIP3 transcript after knockdown; ALDOC mRNA: higher = more ALDOC transcript after knockdown; ACSL5 mRNA: higher = more ACSL5 transcript after knockdown

| Gene | BNIP3L mRNA, set 1 | NDRG1 mRNA, set 1 | BNIP3 mRNA, set 1 | ALDOC mRNA, set 1 | ACSL5 mRNA, set 1 |
| --- | --- | --- | --- | --- | --- |
| TRAPPC6A | 0.174 | 0.273 | 0.304 | 0.0416 | 0.161 |
| GSDME | 0.113 | 0.115 | 0.388 | 0.0419 | 0.103 |
| NUP133 | 0.0677 | 0.108 | 0.263 | 0.0173 | 0.077 |
| SMAD5 | 0.0513 | 0.099 | 0.183 | 0.0148 | 0.134 |
| DNAJC14 | 0.0497 | 0.2 | 0.221 | 0.00962 | 0.137 |
| ADAM30 | 0.0841 | 0.182 | 0.28 | 0.0206 | 0.161 |
| NOL8 | 0.275 | 0.276 | 0.293 | 0.00489 | 0.11 |
| ECHS1 | 0.149 | 0.163 | 0.348 | 0.00139 | 0.156 |
| RPA3 | 0.125 | 0.404 | 0.311 | 0.0381 | 0.292 |
| FANCA | 0.0737 | 0.497 | 0.286 | 0.0329 | 0.153 |
| PCGF1 | 0.106 | 0.167 | 0.318 | 0.0154 | 0.114 |

Ordered by “ALDOC mRNA, set 1” (descending): 4 of the entries above
| Gene | BNIP3L mRNA, set 1 | NDRG1 mRNA, set 1 | BNIP3 mRNA, set 1 | ALDOC mRNA, set 1 | ACSL5 mRNA, set 1 |
| --- | --- | --- | --- | --- | --- |
| ADAM30 | 0.0841 | 0.182 | 0.28 | 0.0206 | 0.161 |
| SMAD5 | 0.0513 | 0.099 | 0.183 | 0.0148 | 0.134 |
| DNAJC14 | 0.0497 | 0.2 | 0.221 | 0.00962 | 0.137 |
| NOL8 | 0.275 | 0.276 | 0.293 | 0.00489 | 0.11 |

Additional reagents follow:
| Gene | BNIP3L mRNA, set 1 | NDRG1 mRNA, set 1 | BNIP3 mRNA, set 1 | ALDOC mRNA, set 1 | ACSL5 mRNA, set 1 |
| --- | --- | --- | --- | --- | --- |
| PRDX2 | 0.0422 | 0.0781 | 0.191 | 0.00655 | 0.0619 |
| SECISBP2L | 0.0872 | 0.292 | 0.185 | 0.00769 | 0.256 |
| ST3GAL2 | 0.0759 | 0.256 | 0.347 | 0.0157 | 0.136 |
| DUS1L | 0.523 | 0.93 | 0.52 | 0.0179 | 0.203 |
| IRS1 | 0.125 | 0.0852 | 0.288 | 0.0183 | 0.359 |
| RGS13 | 0.068 | 0.328 | 0.265 | 0.0214 | 0.203 |
| MYO18B | 0.17 | 0.384 | 0.38 | 0.0606 | 0.288 |
| DNAL1 | 0.0815 | 0.0945 | 0.401 | 0.0445 | 0.157 |
| ZSWIM8 | 0.0642 | 0.0791 | 0.288 | 0.00931 | 0.15 |
| LOC54073 (retired record) | 0.114 | 0.79 | 0.304 | 0.0297 | 0.273 |
| PNO1 | 0.0769 | 0.164 | 0.277 | 0.0266 | 0.548 |
| RNF38 | 0.0758 | 0.0631 | 0.247 | 0.0219 | 0.166 |
| EPRS1 | 0.176 | 0.0853 | 0.335 | 0.0314 | 0.195 |
| CLMN | 0.173 | 0.2 | 0.429 | 0.0672 | 0.128 |
| CTNNBL1 | 0.099 | 0.0899 | 0.22 | 0.0456 | 0.0609 |
| CXCL3 | 0.247 | 0.137 | 0.28 | 0.0604 | 0.121 |
| MAD2L2 | 0.0624 | 0.498 | 0.255 | 0.0112 | 0.383 |
| FAM219B | 0.152 | 0.246 | 0.291 | 0.0174 | 0.276 |
| TSPAN8 | 0.14 | 0.483 | 0.306 | 0.0433 | 0.255 |
| PAGR1 | 0.1 | 0.175 | 0.392 | 0.0398 | 0.198 |
| LTB4R | 0.148 | 0.152 | 0.366 | 0.0471 | 0.131 |
| PEA15 | 0.0514 | 0.215 | 0.236 | 0.0355 | 0.0851 |
| PABPN1 | 0.103 | 0.164 | 0.181 | 0.0188 | 0.136 |
